Assay results

The results are deposited in PubChem (AID1053133; Broad Institute, 2014).

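Plate-reader measure of the Venus reporter marking one vaccinia stage in infected cells (the cell line is not named here); read time unknown.
The test concentration is not given here.
Percent change in Venus reporter signal; lower (more negative) values mean stronger inhibition of that viral stage.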

Values are in %.
The controls that fix the scale are not given here.
Common to all entries: measured here: Venus reporter, other viral stage.
Part of the compounds only, not a random draw; the main read-out is not listed here.

compound | activity change (Venus) (%)
CCCNC(=O)N1[C@H](CO)[C@H](c2ccc(-c3cccc(OC)c3)cc2)[C@@H]1C#N | -33.43
C[C@@H]1CN([C@H](C)CO)C(=O)c2cc(NC(=O)C3CCCCC3)ccc2O[C@@H](C)CCCCO[C@@H]1CN(C)CC1CCCCC1 | -76.74
O=C(C1CCC1)N1CCCCN2[C@H](CO)[C@H](c3ccc(C#CC4CCCC4)cc3)[C@H]2C1 | -31.22
CN1C(=O)c2cc(NC(=O)c3cccc(F)c3)ccc2OC[C@H]2O[C@H](CC(=O)NCC3CCCCC3)CC[C@H]21 | -34.45
C[C@H]1CN([C@@H](C)CO)C(=O)c2c(c3ccccc3n2C)-c2ccccc2CO[C@H]1CN(C)Cc1cccc2c1OCCCO2 | -48.01
O=C(C[C@H]1CC[C@H](NC(=O)Nc2ccc(C(F)(F)F)cc2)[C@@H](CO)O1)NCc1cc(F)cc(F)c1 | -18.2
C[C@H](CO)N1C[C@H](C)[C@H](CN(C)Cc2ccc(C(F)(F)F)cc2)Oc2c(NS(=O)(=O)c3ccc(Cl)cc3)cccc2C1=O | -39.78
C[C@@H]1CN([C@H](C)CO)C(=O)c2cc(C#Cc3ccccc3)cnc2O[C@H]1CN(C)C(=O)c1ccccc1 | -24.34
COc1ccccc1-c1ccc([C@H]2[C@@H](CO)N3CCCCN(S(=O)(=O)c4cn(C)cn4)C[C@H]23)cc1 | -32.22
COc1ccc(S(=O)(=O)Nc2cccc3c2O[C@H](CN(C)C(=O)Nc2ccc(C(F)(F)F)cc2)[C@H](C)CN([C@@H](C)CO)C3=O)cc1 | -37.5
C[C@@H]1CCCCO[C@@H](CN(C)S(=O)(=O)c2ccccc2)[C@H](C)CN([C@H](C)CO)C(=O)c2cc(NS(=O)(=O)c3cccs3)ccc2O1 | -37.19
COc1ccccc1C#Cc1ccc2c(c1)O[C@@H](CN(C)C(C)=O)[C@H](C)CN([C@@H](C)CO)S2(=O)=O | -31.77
C/C=C/c1ccc2c(c1)O[C@@H](CN(C)Cc1ccccc1F)[C@H](C)CN([C@@H](C)CO)S2(=O)=O | -57.75
COc1ccccc1-c1cccc(-c2nc(C(=O)N3CCCCC3)cc3c2[C@@H](CCO)N([S@](=O)C(C)(C)C)C3)c1 | -19.97
C[C@H](CO)N1C[C@H](C)[C@@H](CN(C)Cc2ccc(Cl)c(Cl)c2)OCCCC[C@H](C)Oc2ccc(NS(C)(=O)=O)cc2C1=O | -57.45
COc1cccc(NC(=O)N(C)C[C@@H]2Oc3ncc(/C=C/c4ccccc4)cc3C(=O)N([C@@H](C)CO)C[C@@H]2C)c1 | -42.75
C[C@@H]1CN([C@H](C)CO)S(=O)(=O)c2ccc(C#Cc3ccncc3)cc2O[C@@H]1CN(C)C(=O)C1CCCCC1 | -30.84
CCCN(C)C[C@H]1Oc2cc(C#Cc3ccccc3OC)ccc2S(=O)(=O)N([C@H](C)CO)C[C@H]1C | -40.23
C[C@@H]1CN([C@H](C)CO)C(=O)c2cc(NC(=O)Cc3ccccc3)ccc2O[C@@H](C)CCCCO[C@H]1CN(C)Cc1ccccc1 | -43.13
COc1ccc(C#Cc2ccc([C@H]3[C@@H](CO)N4CCCCN(C(=O)Nc5ccccc5)C[C@H]34)cc2)cc1 | -70.51
O=C(c1ccc2c(c1)OCO2)N1C[C@@H]2N[C@H](C1)C2c1ccc(-c2ccncc2)cc1 (stereo not given in full) | -61.01
CO[C@@H]1CN(C)C(=O)c2cc(NC(=O)c3ccc4c(c3)OCO4)ccc2OC[C@@H](C)N(CC2CC2)C[C@H]1C | -38
C[C@@H]1CN([C@@H](C)CO)S(=O)(=O)c2ccc(-c3cccc(C#N)c3)cc2O[C@@H]1CN(C)C(=O)c1ccccc1 | -53.68
CN1CCN(C(=O)C[C@@H]2CC[C@@H]3[C@H](COC[C@H](O)CN3Cc3ccc(Oc4ccccc4)cc3)O2)CC1 | -52.27
CCCNC(=O)C[C@@H]1CC[C@@H]2[C@H](COC[C@@H](O)CN2Cc2ccc(Cl)c(Cl)c2)O1 | -10.28
CNC[C@@H]1Oc2cc(C#Cc3ccc(F)cc3)ccc2S(=O)(=O)N([C@H](C)CO)C[C@H]1C | -31.31
O=S(=O)(N[C@H]1CC[C@H](CCn2cc(-c3ccccc3F)nn2)O[C@@H]1CO)c1ccc(Cl)cc1 | -47.89
CCCC#Cc1ccc([C@H]2[C@H]3CN(S(=O)(=O)c4ccccc4C)CCCCN3[C@H]2CO)cc1 | -41.54
COc1ccccc1NC(=O)N1CCCCN2[C@H](C1)[C@H](c1ccc(-c3cccc(C)c3)cc1)[C@@H]2CO | -45.06
C[C@@H]1CCCCO[C@H](CN(C)C(=O)Nc2cccc3ccccc23)[C@H](C)CN([C@@H](C)CO)C(=O)c2cc(N(C)C)ccc2O1 | -12.04
C[C@@H]1CN([C@H](C)CO)S(=O)(=O)c2ccc(C#Cc3ccc(F)cc3)cc2O[C@@H]1CN(C)S(C)(=O)=O | -55.01
C[C@H](CO)N1C[C@H](C)[C@@H](CN(C)Cc2ccc3c(c2)OCO3)OCCCC[C@H](C)Oc2ccc(NC(=O)C3CCCCC3)cc2C1=O | -27.65
COc1ccc([Si](C)(C)[C@H]2[C@H](CCO)O[C@@]3(C(=O)N(Cc4cccc(NC(=O)[C@H](C)O)c4)c4ccccc43)[C@@H]2C)cc1 | -76.35
Cc1cccc(S(=O)(=O)N(C)C[C@@H]2OCc3ccccc3-c3c(n(C)c4ccccc34)C(=O)N([C@@H](C)CO)C[C@H]2C)c1 | -69.57
Cc1noc(C)c1S(=O)(=O)Nc1ccc2c(c1)C(=O)N([C@@H](C)CO)C[C@@H](C)[C@@H](CN(C)Cc1ccc3c(c1)OCO3)OCCCC[C@H](C)O2 | -68.72
C[C@@H]1CCCCO[C@@H](CN(C)C(=O)NC2CCCCC2)[C@H](C)CN([C@H](C)CO)C(=O)c2cc(NS(=O)(=O)c3ccccc3)ccc2O1 | -49.14
COc1cccc(C#Cc2ccc([C@H]3[C@@H](CO)N4C(=O)CN(C(=O)c5ccncc5)C[C@H]34)cc2)c1 | -28.5

Once more, the final 4:

| compound | activity change (Venus) (%) |
|---|---|
| `Cc1cccc(S(=O)(=O)N(C)C[C@@H]2OCc3ccccc3-c3c(n(C)c4ccccc34)C(=O)N([C@@H](C)CO)C[C@H]2C)c1` | -69.57 |
| `Cc1noc(C)c1S(=O)(=O)Nc1ccc2c(c1)C(=O)N([C@@H](C)CO)C[C@@H](C)[C@@H](CN(C)Cc1ccc3c(c1)OCO3)OCCCC[C@H](C)O2` | -68.72 |
| `C[C@@H]1CCCCO[C@@H](CN(C)C(=O)NC2CCCCC2)[C@H](C)CN([C@H](C)CO)C(=O)c2cc(NS(=O)(=O)c3ccccc3)ccc2O1` | -49.14 |
| `COc1cccc(C#Cc2ccc([C@H]3[C@@H](CO)N4C(=O)CN(C(=O)c5ccncc5)C[C@H]34)cc2)c1` | -28.5 |